These are yes or no findings as the source states them, for the method shown. Binding seen in cells or lysates may run through a third protein. Some results given as binding are weak or reduced against the parent protein; the word gives no strength.
Legend:
[1] = molecular target: GST-RhoB(17A), nucleotide free RhoB mutant (UniProt P62745); test: pull-down; GST-RhoB(17A) on glutathione-sepharose beads with lysates of MCF-7 cells serum starved overnight and treated with 100 ng/mL EGF for 1 h (Vav2) or serum-containing medium for 1 h (p115 RhoGEF); immunoblot; only the target purified
[2] = molecular target: GST-RhoB(17A), nucleotide free RhoB mutant (UniProt P62745); test: condition: only MCF-7 cells mock-treated or irradiated with 5 Gy, without EGF stimulation; pull-down; 20 ug purified GST-RhoB(17A) on glutathione-sepharose beads, incubated with clarified MCF-7 lysates for 60 min at 4 C; cells mock-treated or irradiated with 5 Gy (also 400 uM 5-FU for 72 h); immunoblot for the GEFs; only the target purified
[3] = molecular target: GST-RhoB(17A), nucleotide free RhoB mutant (UniProt P62745); test: pull-down; RhoB(17A) mutant pulldown with lysates of HeLa cells treated with 500 uM H2O2 for the indicated times; immunoblot for the GEFs; only the target purified

Amino acid sequences for entries named in this document (tags omitted). A change or cut given only in a name is not applied to a line headed by its entry. Chains listed by the source or under a name are the forms on record and can include a tag or linker.
UniProt P62745: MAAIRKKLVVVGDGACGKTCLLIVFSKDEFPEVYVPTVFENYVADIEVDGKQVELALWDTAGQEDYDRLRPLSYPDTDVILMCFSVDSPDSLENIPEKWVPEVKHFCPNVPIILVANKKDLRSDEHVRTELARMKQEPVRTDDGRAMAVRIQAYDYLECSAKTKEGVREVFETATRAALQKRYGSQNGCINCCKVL
GST-RhoB(17A), nucleotide free RhoB mutant (P62745, form named): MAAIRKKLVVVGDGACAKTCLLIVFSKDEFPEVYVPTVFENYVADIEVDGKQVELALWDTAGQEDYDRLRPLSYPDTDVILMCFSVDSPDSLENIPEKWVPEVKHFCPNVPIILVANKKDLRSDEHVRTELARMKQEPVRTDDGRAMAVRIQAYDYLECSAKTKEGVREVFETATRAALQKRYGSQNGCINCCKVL

B1: Vav2 (protein, UniProt P52735 1-878)
chain: MEQWRQCGRWLIDCKVLPPNHRVVWPSAVVFDLAQALRDGVLLCQLLHNLSPGSIDLKDINFRPQMSQFLCLKNIRTFLKVCHDKFGLRNSELFDPFDLFDVRDFGKVISAVSRLSLHSIAQNKGIRPFPSEETTENDDDVYRSLEELADEHDLGEDIYDCVPCEDGGDDIYEDIIKVEVQQPMIRYMQKMGMTEDDKRNCCLLEIQETEAKYYRTLEDIEKNYMSPLRLVLSPADMAAVFINLEDLIKVHHSFLRAIDVSVMVGGSTLAKVFLDFKERLLIYGEYCSHMEHAQNTLNQLLASREDFRQKVEECTLKVQDGKFKLQDLLVVPMQRVLKYHLLLKELLSHSAERPERQQLKEALEAMQDLAMYINEVKRDKETLRKISEFQSSIENLQVKLEEFGRPKIDGELKVRSIVNHTKQDRYLFLFDKVVIVCKRKGYSYELKEIIELLFHKMTDDPMNNKDVKKSHGKMWSYGFYLIHLQGKQGFQFFCKTEDMKRKWMEQFEMAMSNIKPDKANANHHSFQMYTFDKTTNCKACKMFLRGTFYQGYMCTKCGVGAHKECLEVIPPCKFTSPADLDASGAGPGPKMVAMQNYHGNPAPPGKPVLTFQTGDVLELLRGDPESPWWEGRLVQTRKSGYFPSSSVKPCPVDGRPPISRPPSREIDYTAYPWFAGNMERQQTDNLLKSHASGTYLIRERPAEAERFAISIKFNDEVKHIKVVEKDNWIHITEAKKFDSLLELVEYYQCHSLKESFKQLDTTLKYPYKSRERSASRASSRSPASCASYNFSFLSPQGLSFASQGPSAPFWSVFTPRVIGTAVARYNFAARDMRELSLREGDVVRIYSRIGGDQGWWKGETNGRIGWFPSTYVEEEGIQ
With B1 the binding [1] was “binds” and the binding [2] was “no binding”.

B2: neuroepithelial transforming gene 1 (Net1) (natural protein, human (endogenous in MCF-7 and HeLa), UniProt Q7Z628 1-596, looked up)
chain: MEPELAAQKQPRPRRRSRRASGLSTEGATGPSADTSGSELDGRCSLRRGSSFTFLTPGPNWDFTLKRKRREKDDDVVSLSSLDLKEPSNKRVRPLARVTSLANLISPVRNGAVRRFGQTIQSFTLRGDHRSPASAQKFSSRSTVPTPAKRRSSALWSEMLDITMKESLTTREIRRQEAIYEMSRGEQDLIEDLKLARKAYHDPMLKLSIMSEEELTHIFGDLDSYIPLHEDLLTRIGEATKPDGTVEQIGHILVSWLPRLNAYRGYCSNQLAAKALLDQKKQDPRVQDFLQRCLESPFSRKLDLWSFLDIPRSRLVKYPLLLKEILKHTPKEHPDVQLLEDAILIIQGVLSDINLKKGESECQYYIDKLEYLDEKQRDPRIEASKVLLCHGELRSKSGHKLYIFLFQDILVLTRPVTRNERHSYQVYRQPIPVQELVLEDLQDGDVRMGGSFRGAFSNSEKAKNIFRIRFHDPSPAQSHTLQANDVFHKQQWFNCIRAAIAPFQSAGSPPELQGLPELHEECEGNHPSARKLTAQRRASTVSSVTQVEVDENAYRCGSGMQMAEDSKSLKTHQTQPGIRRARDKALSGGKRKETLV
notes: Net1, nuclear guanine nucleotide exchange factor, endogenous in human cancer cell lines, detected by immunoblot; source: endogenous, MCF-7 lysate; endogenous, HeLa lysate
For B2, the binding [3] was “binds”.
